For this test, the target named is Spalt-like transcription factor 4 (SALL4) (human (endogenous in CD44(+)-OSCC cells)) (UniProt Q9UJQ4). Kind of test: co-IP; protein samples of CD44(+)-OSCC cells; rabbit anti-SALL4, rabbit anti-METTL3 (10 ug) or IgG overnight at 4 °C, Protein A/G agarose beads, western blotting; IgG as negative control.

By UniProt entry, the sequences of proteins in these tests, tags left out.
UniProt Q9UJQ4: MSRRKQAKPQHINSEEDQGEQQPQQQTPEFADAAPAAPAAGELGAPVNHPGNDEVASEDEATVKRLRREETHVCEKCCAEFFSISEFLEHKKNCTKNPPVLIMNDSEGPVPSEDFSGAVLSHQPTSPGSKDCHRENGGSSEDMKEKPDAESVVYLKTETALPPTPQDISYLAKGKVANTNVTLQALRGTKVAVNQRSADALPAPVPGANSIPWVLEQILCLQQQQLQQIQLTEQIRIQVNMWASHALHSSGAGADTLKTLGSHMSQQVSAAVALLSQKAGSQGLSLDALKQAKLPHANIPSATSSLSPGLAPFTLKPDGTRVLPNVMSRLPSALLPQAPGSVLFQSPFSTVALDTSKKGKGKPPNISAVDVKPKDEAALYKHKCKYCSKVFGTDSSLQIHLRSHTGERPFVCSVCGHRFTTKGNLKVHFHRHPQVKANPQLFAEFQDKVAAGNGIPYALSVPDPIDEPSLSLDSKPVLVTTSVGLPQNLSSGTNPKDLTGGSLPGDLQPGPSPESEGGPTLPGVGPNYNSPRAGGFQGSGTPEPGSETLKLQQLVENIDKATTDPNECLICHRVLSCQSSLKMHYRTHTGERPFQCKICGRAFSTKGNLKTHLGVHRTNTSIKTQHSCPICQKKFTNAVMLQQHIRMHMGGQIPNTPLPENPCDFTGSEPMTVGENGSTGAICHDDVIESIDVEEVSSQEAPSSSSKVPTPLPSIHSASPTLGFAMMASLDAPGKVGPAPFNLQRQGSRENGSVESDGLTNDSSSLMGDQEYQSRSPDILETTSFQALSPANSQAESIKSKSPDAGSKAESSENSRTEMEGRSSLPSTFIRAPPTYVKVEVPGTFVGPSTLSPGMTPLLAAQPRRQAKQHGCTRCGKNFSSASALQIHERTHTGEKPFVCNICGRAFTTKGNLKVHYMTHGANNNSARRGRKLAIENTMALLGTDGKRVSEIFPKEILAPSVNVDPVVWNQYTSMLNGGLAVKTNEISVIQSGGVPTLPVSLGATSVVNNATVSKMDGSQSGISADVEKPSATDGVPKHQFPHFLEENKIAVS
UniProt Q86U44: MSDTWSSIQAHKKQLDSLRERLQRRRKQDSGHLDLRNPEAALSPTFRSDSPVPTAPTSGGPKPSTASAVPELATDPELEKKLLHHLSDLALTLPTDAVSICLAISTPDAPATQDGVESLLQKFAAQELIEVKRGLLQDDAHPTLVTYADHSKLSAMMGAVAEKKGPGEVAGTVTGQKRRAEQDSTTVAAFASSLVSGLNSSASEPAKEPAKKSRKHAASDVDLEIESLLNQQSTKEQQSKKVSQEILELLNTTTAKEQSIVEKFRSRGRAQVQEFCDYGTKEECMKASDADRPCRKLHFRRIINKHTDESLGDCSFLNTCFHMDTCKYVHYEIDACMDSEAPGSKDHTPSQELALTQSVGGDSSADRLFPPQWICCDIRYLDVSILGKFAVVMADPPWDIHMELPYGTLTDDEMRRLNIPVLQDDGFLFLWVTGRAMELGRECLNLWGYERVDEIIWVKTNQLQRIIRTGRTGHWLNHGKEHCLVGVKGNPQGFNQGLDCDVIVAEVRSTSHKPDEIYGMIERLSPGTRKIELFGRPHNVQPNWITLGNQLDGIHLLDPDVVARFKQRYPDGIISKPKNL

These are yes or no findings as the source states them, for the method shown. Binding seen in cells or lysates may run through a third protein. Some binding calls cover weakened binding; strength is not graded here.

“methyltransferase-like 3 (METTL3) (from UniProt Q86U44 1-580)”: the binding result was “binds”.

The values are drawn from PMC10866932.
